The results in this text go back to article PMC10936183.

By UniProt entry, the sequences of proteins in these tests, tags left out. Residues count along the entry.
UniProt O94822: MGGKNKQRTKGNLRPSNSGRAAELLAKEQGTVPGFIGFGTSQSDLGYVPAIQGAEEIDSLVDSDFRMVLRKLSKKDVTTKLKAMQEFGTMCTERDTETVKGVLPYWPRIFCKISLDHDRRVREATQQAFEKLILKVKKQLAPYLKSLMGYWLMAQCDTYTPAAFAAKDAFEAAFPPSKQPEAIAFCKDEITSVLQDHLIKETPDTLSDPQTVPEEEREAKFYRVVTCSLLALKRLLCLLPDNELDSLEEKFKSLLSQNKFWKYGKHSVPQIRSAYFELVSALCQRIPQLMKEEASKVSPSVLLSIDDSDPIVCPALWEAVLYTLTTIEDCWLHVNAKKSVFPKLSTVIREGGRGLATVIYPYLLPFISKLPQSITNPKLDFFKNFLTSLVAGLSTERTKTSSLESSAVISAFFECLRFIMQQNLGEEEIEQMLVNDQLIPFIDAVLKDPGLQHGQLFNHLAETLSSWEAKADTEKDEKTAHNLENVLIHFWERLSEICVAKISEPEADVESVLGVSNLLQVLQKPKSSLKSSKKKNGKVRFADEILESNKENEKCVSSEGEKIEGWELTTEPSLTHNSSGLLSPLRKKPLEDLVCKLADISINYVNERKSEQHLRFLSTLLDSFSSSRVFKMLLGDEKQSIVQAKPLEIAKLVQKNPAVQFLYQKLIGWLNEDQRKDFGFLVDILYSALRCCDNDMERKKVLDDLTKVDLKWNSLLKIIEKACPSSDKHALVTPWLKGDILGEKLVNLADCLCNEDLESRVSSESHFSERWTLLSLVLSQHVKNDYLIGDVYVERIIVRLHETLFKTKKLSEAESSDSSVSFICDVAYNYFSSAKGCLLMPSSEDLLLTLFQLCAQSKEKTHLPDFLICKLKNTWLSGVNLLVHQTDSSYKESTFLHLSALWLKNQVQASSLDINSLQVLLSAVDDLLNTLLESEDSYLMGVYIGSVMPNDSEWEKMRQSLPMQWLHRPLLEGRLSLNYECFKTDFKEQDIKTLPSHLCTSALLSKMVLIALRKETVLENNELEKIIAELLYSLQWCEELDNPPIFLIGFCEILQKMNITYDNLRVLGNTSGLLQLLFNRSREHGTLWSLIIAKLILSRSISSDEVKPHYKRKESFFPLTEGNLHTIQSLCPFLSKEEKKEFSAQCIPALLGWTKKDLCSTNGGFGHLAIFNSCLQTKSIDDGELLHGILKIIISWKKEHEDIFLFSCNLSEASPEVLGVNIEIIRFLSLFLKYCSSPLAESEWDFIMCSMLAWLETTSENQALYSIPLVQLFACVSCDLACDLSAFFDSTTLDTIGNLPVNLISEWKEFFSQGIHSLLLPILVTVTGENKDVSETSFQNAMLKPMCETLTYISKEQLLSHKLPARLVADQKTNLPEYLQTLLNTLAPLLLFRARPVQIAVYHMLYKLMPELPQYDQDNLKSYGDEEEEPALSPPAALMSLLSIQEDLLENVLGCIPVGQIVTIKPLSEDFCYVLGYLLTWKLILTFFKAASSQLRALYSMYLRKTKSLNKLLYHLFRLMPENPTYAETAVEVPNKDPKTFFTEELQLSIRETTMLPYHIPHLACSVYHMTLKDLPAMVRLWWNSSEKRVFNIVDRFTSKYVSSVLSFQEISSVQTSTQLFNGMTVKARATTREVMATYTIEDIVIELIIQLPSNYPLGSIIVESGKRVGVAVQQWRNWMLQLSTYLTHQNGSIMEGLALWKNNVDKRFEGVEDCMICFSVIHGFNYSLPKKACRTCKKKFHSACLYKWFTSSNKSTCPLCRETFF
UniProt Q9UKV5: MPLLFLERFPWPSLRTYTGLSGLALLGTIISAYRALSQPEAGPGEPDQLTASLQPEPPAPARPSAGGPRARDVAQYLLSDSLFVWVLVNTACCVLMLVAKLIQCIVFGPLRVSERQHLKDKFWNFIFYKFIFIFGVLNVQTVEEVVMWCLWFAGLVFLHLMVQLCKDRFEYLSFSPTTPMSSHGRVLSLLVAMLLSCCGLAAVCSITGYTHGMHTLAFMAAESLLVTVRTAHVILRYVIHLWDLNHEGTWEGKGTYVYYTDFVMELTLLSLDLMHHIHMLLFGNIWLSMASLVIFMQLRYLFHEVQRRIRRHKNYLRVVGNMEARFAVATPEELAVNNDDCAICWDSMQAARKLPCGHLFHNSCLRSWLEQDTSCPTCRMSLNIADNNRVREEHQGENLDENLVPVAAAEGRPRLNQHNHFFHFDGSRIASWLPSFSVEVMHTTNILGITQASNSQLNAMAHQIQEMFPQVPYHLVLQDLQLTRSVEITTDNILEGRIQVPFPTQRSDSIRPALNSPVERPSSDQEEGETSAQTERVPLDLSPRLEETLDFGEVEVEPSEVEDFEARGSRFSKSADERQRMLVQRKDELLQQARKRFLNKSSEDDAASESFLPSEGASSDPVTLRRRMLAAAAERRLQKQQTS
UniProt P11021, residues 19-654: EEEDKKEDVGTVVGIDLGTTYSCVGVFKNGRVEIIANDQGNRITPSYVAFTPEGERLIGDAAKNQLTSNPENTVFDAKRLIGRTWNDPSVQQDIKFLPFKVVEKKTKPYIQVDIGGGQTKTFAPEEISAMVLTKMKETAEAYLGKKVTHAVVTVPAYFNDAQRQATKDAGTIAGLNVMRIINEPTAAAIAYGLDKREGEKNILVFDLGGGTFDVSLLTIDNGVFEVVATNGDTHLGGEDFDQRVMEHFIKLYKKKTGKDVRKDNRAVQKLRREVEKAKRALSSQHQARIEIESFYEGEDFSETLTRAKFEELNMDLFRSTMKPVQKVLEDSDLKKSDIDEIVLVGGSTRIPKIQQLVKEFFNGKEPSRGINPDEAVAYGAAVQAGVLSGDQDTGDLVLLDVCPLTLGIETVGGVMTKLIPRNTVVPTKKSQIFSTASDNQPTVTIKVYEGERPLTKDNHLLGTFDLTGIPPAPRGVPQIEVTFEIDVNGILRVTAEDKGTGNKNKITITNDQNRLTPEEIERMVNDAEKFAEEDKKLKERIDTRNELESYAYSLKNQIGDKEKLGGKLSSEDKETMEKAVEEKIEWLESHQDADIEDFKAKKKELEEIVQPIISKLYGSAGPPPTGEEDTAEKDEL

The test deals with GFP-tagged NSP6 (SARS-CoV-2 nonstructural protein 6, full-length NSP6 1–290) (SARS-CoV-2) (UniProt P0DTD1). In words: affinity purification with mass spectrometry.

These are yes or no findings as the source states them, for the method shown. Binding seen in cells or lysates may run through a third protein. Here binding means that the protein was enriched with, or labelled near, the bait; the list need not be complete.

Consider LTN1 (from UniProt O94822 1-1766), for which the binding entry is “binds”.
The result for AMFR (from UniProt Q9UKV5 1-643) reads “binds”; that for PSMC4 (from UniProt P43686 1-418), “binds”; that for PSMD4 (from UniProt P55036 1-377), “binds”.
For the molecule HSPA5 (from UniProt P11021 19-654), the binding result is “binds”.
The entry for HSPA8 (from UniProt P11142 1-646) is “binds”.

B1: SPTLC1 (protein, UniProt O15269 1-473)
chain: MATATEQWVLVEMVQALYEAPAYHLILEGILILWIIRLLFSKTYKLQERSDLTVKEKEELIEEWQPEPLVPPVPKDHPALNYNIVSGPPSHKTVVNGKECINFASFNFLGLLDNPRVKAAALASLKKYGVGTCGPRGFYGTFDVHLDLEDRLAKFMKTEEAIIYSYGFATIASAIPAYSKRGDIVFVDRAACFAIQKGLQASRSDIKLFKHNDMADLERLLKEQEIEDQKNPRKARVTRRFIVVEGLYMNTGTICPLPELVKLKYKYKARIFLEESLSFGVLGEHGRGVTEHYGINIDDIDLISANMENALASIGGFCCGRSFVIDHQRLSGQGYCFSASLPPLLAAAAIEALNIMEENPGIFAVLKEKCGQIHKALQGISGLKVVGESLSPAFHLQLEESTGSREQDVRLLQEIVDQCMNRSIALTQARYLEKEEKCLPPPSIRVVVTVEQTEEELERAASTIKEVAQAVLL
For the molecule B1, the binding result is listed as “binds”.

B2: CERS2 (protein, UniProt Q96G23 1-380)
chain: MLQTLYDYFWWERLWLPVNLTWADLEDRDGRVYAKASDLYITLPLALLFLIVRYFFELYVATPLAALLNIKEKTRLRAPPNATLEHFYLTSGKQPKQVEVELLSRQSGLSGRQVERWFRRRRNQDRPSLLKKFREASWRFTFYLIAFIAGMAVIVDKPWFYDMKKVWEGYPIQSTIPSQYWYYMIELSFYWSLLFSIASDVKRKDFKEQIIHHVATIILISFSWFANYIRAGTLIMALHDSSDYLLESAKMFNYAGWKNTCNNIFIVFAIVFIITRLVILPFWILHCTLVYPLELYPAFFGYYFFNSMMGVLQLLHIFWAYLILRMAHKFITGKLVEDERSDREETESSEGEEAAAGGGAKSRPLANGHPILNNNHRKND
On to B2, for which the binding entry is reported as “binds”.

B3: RPN1 (protein, UniProt P04843 24-607)
chain: ASSEAPPLINEDVKRTVDLSSHLAKVTAEVVLAHLGGGSTSRATSFLLALEPELEARLAHLGVQVKGEDEEENNLEVRETKIKGKSGRFFTVKLPVALDPGAKISVIVETVYTHVLHPYPTQITQSEKQFVVFEGNHYFYSPYPTKTQTMRVKLASRNVESYTKLGNPTRSEDLLDYGPFRDVPAYSQDTFKVHYENNSPFLTITSMTRVIEVSHWGNIAVEENVDLKHTGAVLKGPFSRYDYQRQPDSGISSIRSFKTILPAAAQDVYYRDEIGNVSTSHLLILDDSVEMEIRPRFPLFGGWKTHYIVGYNLPSYEYLYNLGDQYALKMRFVDHVFDEQVIDSLTVKIILPEGAKNIEIDSPYEISRAPDELHYTYLDTFGRPVIVAYKKNLVEQHIQDIVVHYTFNKVLMLQEPLLVVAAFYILFFTVIIYVRLDFSITKDPAAEARMKVACITEQVLTLVNKRIGLYRHFDETVNRYKQSRDISTLNSGKKSLETEHKALTSEIALLQSRLKTEGSDLCDRVSEMQKLDAQVKELVLKSAVEAERLVAGKLKKDTYIENEKLISGKRQELVTKIDHILDAL
Consider B3, for which the binding entry is listed as “binds”.

B4: ERLIN2 (protein, UniProt O94905 1-339)
chain: MAQLGAVVAVASSFFCASLFSAVHKIEEGHIGVYYRGGALLTSTSGPGFHLMLPFITSYKSVQTTLQTDEVKNVPCGTSGGVMIYFDRIEVVNFLVPNAVYDIVKNYTADYDKALIFNKIHHELNQFCSVHTLQEVYIELFDQIDENLKLALQQDLTSMAPGLVIQAVRVTKPNIPEAIRRNYELMESEKTKLLIAAQKQKVVEKEAETERKKALIEAEKVAQVAEITYGQKVMEKETEKKISEIEDAAFLAREKAKADAECYTAMKIAEANKLKLTPEYLQLMKYKAIASNSKIYFGKDIPNMFMDSAGSVSKQFEGLADKLSFGLEDEPLETATKEN
As to B4, the binding result was “binds”.

B5: ERLIN1 (protein, UniProt O75477 1-348)
chain: MNMTQARVLVAAVVGLVAVLLYASIHKIEEGHLAVYYRGGALLTSPSGPGYHIMLPFITTFRSVQTTLQTDEVKNVPCGTSGGVMIYIDRIEVVNMLAPYAVFDIVRNYTADYDKTLIFNKIHHELNQFCSAHTLQEVYIELFDQIDENLKQALQKDLNLMAPGLTIQAVRVTKPKIPEAIRRNFELMEAEKTKLLIAAQKQKVVEKEAETERKKAVIEAEKIAQVAKIRFQQKVMEKETEKRISEIEDAAFLAREKAKADAEYYAAHKYATSNKHKLTPEYLELKKYQAIASNSKIYFGSNIPNMFVDSSCALKYSDIRTGRESSLPSKEALEPSGENVIQNKESTG
With B5, the binding result is recorded as “binds”.
